Experimental findings from publication PMC5762833 are described below.

Sequences of proteins named here, by UniProt entry; tags and fusion partners are left off. A change or cut given only in a name is not applied to a line headed by its entry.
UniProt P24557: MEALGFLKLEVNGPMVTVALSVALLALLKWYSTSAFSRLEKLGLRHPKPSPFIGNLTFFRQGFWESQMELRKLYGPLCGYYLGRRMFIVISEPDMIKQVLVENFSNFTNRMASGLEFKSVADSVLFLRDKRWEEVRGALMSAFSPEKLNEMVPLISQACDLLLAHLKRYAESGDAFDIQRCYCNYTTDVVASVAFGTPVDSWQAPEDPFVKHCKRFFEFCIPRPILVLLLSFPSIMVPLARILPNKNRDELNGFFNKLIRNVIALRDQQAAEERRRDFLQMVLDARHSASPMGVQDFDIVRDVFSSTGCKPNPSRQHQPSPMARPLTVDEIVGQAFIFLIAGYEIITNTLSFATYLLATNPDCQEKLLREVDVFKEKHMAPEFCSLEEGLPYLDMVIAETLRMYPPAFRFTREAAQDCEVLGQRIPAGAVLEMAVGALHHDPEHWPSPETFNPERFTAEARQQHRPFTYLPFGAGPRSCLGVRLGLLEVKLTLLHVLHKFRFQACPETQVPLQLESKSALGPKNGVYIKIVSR

First the molecules themselves.
B1: aldosterone synthase (CYP11B2) (enzyme, UniProt P19099 25-503)
chain: GTRAARAPRTVLPFEAMPQHPGNRWLRLLQIWREQGYEHLHLEMHQTFQELGPIFRYNLGGPRMVCVMLPEDVEKLQQVDSLHPCRMILEPWVAYRQHRGHKCGVFLLNGPEWRFNRLRLNPDVLSPKAVQRFLPMVDAVARDFSQALKKKVLQNARGSLTLDVQPSIFHYTIEASNLALFGERLGLVGHSPSSASLNFLHALEVMFKSTVQLMFMPRSLSRWISPKVWKEHFEAWDCIFQYGDNCIQKIYQELAFNRPQHYTGIVAELLLKAELSLEAIKANSMELTAGSVDTTAFPLLMTLFELARNPDVQQILRQESLAAAASISEHPQKATTELPLLRAALKETLRLYPVGLFLERVVSSDLVLQNYHIPAGTLVQVFLYSLGRNAALFPRPERYNPQRWLDIRGSGRNFHHVPFGFGMRQCLGRRLAEAEMLLLLHHVLKHFLVETLTQEDIKMVYSFILRPGTSPLLTFRAIN
B2: steroid-20,22-lyase (CYP11A1) (enzyme, UniProt P05108 40-521)
chain: ISTRSPRPFNEIPSPGDNGWLNLYHFWRETGTHKVHLHHVQNFQKYGPIYREKLGNVESVYVIDPEDVALLFKSEGPNPERFLIPPWVAYHQYYQRPIGVLLKKSAAWKKDRVALNQEVMAPEATKNFLPLLDAVSRDFVSVLHRRIKKAGSGNYSGDISDDLFRFAFESITNVIFGERQGMLEEVVNPEAQRFIDAIYQMFHTSVPMLNLPPDLFRLFRTKTWKDHVAAWDVIFSKADIYTQNFYWELRQKGSVHHDYRGILYRLLGDSKMSFEDIKANVTEMLAGGVDTTSMTLQWHLYEMARNLKVQDMLRAEVLAARHQAQGDMATMLQLVPLLKASIKETLRLHPISVTLQRYLVNDLVLRDYMIPAKTLVQVAIYALGREPTFFFDPENFDPTRWLSKDKNITYFRNLGFGWGVRQCLGRRIAELEMTIFLINMLENFRVEIQHLSDVGTTFNLILMPEKPISFTFWPFNQEATQQ
B3: ferrochelatase (FECH) (enzyme, UniProt P22830 55-423)
chain: GAKPQVQPQKRKPKTGILMLNMGGPETLGDVHDFLLRLFLDRDLMTLPIQNKLAPFIAKRRTPKIQEQYRRIGGGSPIKIWTSKQGEGMVKLLDELSPNTAPHKYYIGFRYVHPLTEEAIEEMERDGLERAIAFTQYPQYSCSTTGSSLNAIYRYYNQVGRKPTMKWSTIDRWPTHHLLIQCFADHILKELDHFPLEKRSEVVILFSAHSLPMSVVNRGDPYPQEVSATVQKVMERLEYCNPYRLVWQSKVGPMPWLGPQTDESIKGLCERGRKNILLVPIAFTSDHIETLYELDIEYSQVLAKECGVENIRRAESLNGNPLFSKALADLVHSHIQSNELCSKQLTLSCPLCVNPVCRETKSFFTSQQL
B4: RAB27B (protein, UniProt O00194 1-218)
chain: MTDGDYDYLIKLLALGDSGVGKTTFLYRYTDNKFNPKFITTVGIDFREKRVVYNAQGPNGSSGKAFKVHLQLWDTAGQERFRSLTTAFFRDAMGFLLMFDLTSQQSFLNVRNWMSQLQANAYCENPDIVLIGNKADLPDQREVNERQARELADKYGIPYFETSAATGQNVEKAVETLLDLIMKRMEQCVEKTQIPDTVNGGNSGNLDGEKPPEKKCIC
B5: adrenodoxin (ADX) (protein, UniProt P10109 61-184)
chain: SSSEDKITVHFINRDGETLTTKGKVGDSLLDVVVENNLDIDGFGACEGTLACSTCHLIFEDHIYEKLDAITDEENDMLDLAYGLTDRSRLGCQICLTKSMDNMTVRVPETVADARQSIDVGKTS
B6: steroid-11β-hydroxylase (CYP11B1) (enzyme, UniProt P15538 25-503)
chain: GTRAARVPRTVLPFEAMPRRPGNRWLRLLQIWREQGYEDLHLEVHQTFQELGPIFRYDLGGAGMVCVMLPEDVEKLQQVDSLHPHRMSLEPWVAYRQHRGHKCGVFLLNGPEWRFNRLRLNPEVLSPNAVQRFLPMVDAVARDFSQALKKKVLQNARGSLTLDVQPSIFHYTIEASNLALFGERLGLVGHSPSSASLNFLHALEVMFKSTVQLMFMPRSLSRWTSPKVWKEHFEAWDCIFQYGDNCIQKIYQELAFSRPQQYTSIVAELLLNAELSPDAIKANSMELTAGSVDTTVFPLLMTLFELARNPNVQQALRQESLAAAASISEHPQKATTELPLLRAALKETLRLYPVGLFLERVASSDLVLQNYHIPAGTLVRVFLYSLGRNPALFPRPERYNPQRWLDIRGSGRNFYHVPFGFGMRQCLGRRLAEAEMLLLLHHVLKHLQVETLTQEDIKMVYSFILRPSMFPLLTFRAIN
B7: NADPH-adrenodoxin reductase (ADR) (enzyme, UniProt P22570 33-491)
chain: STQEKTPQICVVGSGPAGFYTAQHLLKHPQAHVDIYEKQPVPFGLVRFGVAPDHPEVKNVINTFTQTAHSGRCAFWGNVEVGRDVTVPELREAYHAVVLSYGAEDHRALEIPGEELPGVCSARAFVGWYNGLPENQELEPDLSCDTAVILGQGNVALDVARILLTPPEHLERTDITKAALGVLRQSRVKTVWLVGRRGPLQVAFTIKELREMIQLPGARPILDPVDFLGLQDKIKEVPRPRKRLTELLLRTATEKPGPAEAARQASASRAWGLRFFRSPQQVLPSPDGRRAAGVRLAVTRLEGVDEATRAVPTGDMEDLPCGLVLSSIGYKSRPVDPSVPFDSKLGVIPNVEGRVMDVPGLYCSGWVKRGPTGVIATTMTDSFLTGQMLLQDLKAGLLPSGPRPGYAAIQALLSSRGVRPVSFSDWEKLDAEEVARGQGTGKPREKLVDPQEMLRLLGH

Results are given in words; binding and its absence hold for the method and conditions named. For some of these results: Binding calls can cover weak binding; strength is not graded here.

The target in one assay is Human thromboxane synthase (TBXAS1) (human) (UniProt P24557). Kind of assay: SPR; as a2, with isatin added to the analyte samples at a final concentration of 100 μM and incubated for 15 min; both purified.
B1: the binding result is recorded as “binds”.

The target is the same in another assay. Kind of assay: condition: micromolar concentrations (50 nM to 5 μM injected); SPR; Biacore 3000; TBXAS1 amine-coupled to a CM5 chip (about 7,500 RU); analytes 50 nM to 5 μM injected for 10 min at 5 μL/min; control channel without protein; both purified.
Turning to B2, the binding result is reported as “no binding”.

In the case of B3, the binding entry is listed as “no binding”.

Turning to B4, the binding entry is “no binding”.

Regarding B5, the binding entry is “no binding”.

With B6, the binding entry is given as “no binding”.

With B7, the binding entry was “no binding”.
